Results are given in words; binding and its absence hold for the method and conditions named. Some results given as binding are weak or reduced against the parent protein; the word gives no strength.
Target: T1, bZIP10 (rice (Oryza sativa L.)) (UniProt Q8RZ35)
T1 sequence: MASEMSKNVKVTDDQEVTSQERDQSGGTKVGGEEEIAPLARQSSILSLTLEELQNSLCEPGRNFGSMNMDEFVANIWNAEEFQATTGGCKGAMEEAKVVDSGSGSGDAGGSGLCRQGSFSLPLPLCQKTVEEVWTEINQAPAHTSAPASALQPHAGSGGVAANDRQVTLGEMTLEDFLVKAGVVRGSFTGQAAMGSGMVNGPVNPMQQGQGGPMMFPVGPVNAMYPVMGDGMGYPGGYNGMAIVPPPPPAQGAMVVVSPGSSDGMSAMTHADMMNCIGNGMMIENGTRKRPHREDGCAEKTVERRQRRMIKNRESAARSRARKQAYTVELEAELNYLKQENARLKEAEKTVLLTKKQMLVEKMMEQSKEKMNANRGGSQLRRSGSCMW
Test: two-hybrid; bZIPs as baits in pDEST32, SAPKs as preys in pDEST22 (ProQuest system), co-transformed into yeast Y2HGold; growth on SD/-Trp-Leu-Ade-His with X-alpha-Gal; three repeats, positive only if positive in all three

binding: binds
B1: SAPK6 (enzyme, UniProt Q6ZI44 1-365)
chain: MEKYELLKDIGSGNFGVARLMRNRETKELVAMKYIPRGLKIDENVAREIINHRSLRHPNIIRFKEVVLTPTHLAIVMEYAAGGELFDRICSAGRFSEDESRYFFQQLICGVSYCHFMQICHRDLKLENTLLDGSPAPRLKICDFGYSKSSLLHSKPKSTVGTPAYIAPEVLSRREYDGKMADVWSCGVTLYVMLVGAYPFEDPDDPKNFRKTIGRIVSIQYKIPEYVHISQDCRQLLSRIFVANPAKRITIREIRNHPWFMKNLPRELTEAAQAKYYKKDNSARTFSDQTVDEIMKIVQEAKTPPPSSTPVAGFGWTEEEEQEDGKNPDDDEGDRDEEEGEEGDSEDEYTKQVKQAHASCDLQKS

Reference: paper PMC6471077
